According to PubChem BioAssay AID2685 (National Center for Advancing Translational Sciences (NCATS), 2010):
The other results are listed elsewhere or left out. Further columns of the screen follow, without active or inactive calls. Compounds called inactive in the main read-out are mostly missing here. Potencies come from curve fits of mixed quality, noted in brackets.

Assay: qHTS Assay for Lipid Storage Modulators in Drosophila S3 Cells;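 on cell number change: cells counted by Cell Tracker Red CMTPX staining in the red channel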
Settings: BODIPY lipid droplet fluorescence, 18-24 h; for cell number change: measured here: cell count max response, cells fed with added oleic acid
How it was run: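 Drosophila S3 cells got compounds at several concentrations plus oleic acid (400 uM solution). Laser-scanning cytometry with 488 nm excitation read lipid droplets at 500-530 nm and cells at 575-640 nm. Percent activity was relative to 20 uM Triacsin C.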

[1] = measured here: cell number channel AC50, cells fed with added oleic acid
[2] = measured here: lipid fluorescence (Fed channel) AC50, cells fed with added oleic acid

SMILES	cell number change	AC50 [1]	AC50 [2]
COc1ccc(OC)c(N2C(=O)NC(=O)/C(=C\c3ccc([N+](=O)[O-])s3)C2=O)c1	21.8%	–	–
COc1ccc2c(c1)[nH]c1c(C)nccc12	28.6%	0.0731 µM [rising, full curve]	0.731 µM [rising, full curve]
CC1(C)C(C=C(Cl)Cl)C1C(=O)OCc1cccc(Oc2ccccc2)c1 (configuration not stated)	–	9.2 µM [rising, partial curve, poor fit]	–
O=C(Nc1ccc(Cl)cc1C(=O)c1ccccc1)c1ccccc1	-19.9%	–	18.4 µM [falling, single point]
C=CCn1c(O)c(C(C)=NCCCN2CCOCC2)c(=O)[nH]c1=O	7.05%	5.17 µM [rising, single point]	14.6 µM [rising, single point]
COCCCNC(=O)c1c(NC(=O)c2ccco2)n(Cc2ccccc2)c2nc3ccccc3nc12	10.2%	–	1.84 µM [rising, partial curve]
O=c1[nH]c(=S)n(-c2ccccc2)c(O)c1/C=N/N1CCCCC1c1cccnc1 (configuration not stated)	–	–	1.64 µM [rising, partial curve]
COC(=O)C1=C(c2ccc(OC)c(OC)c2)C[C@@H]2CC[C@H]1N2C(=O)NCCNC(C)=O	6.26%	–	–
CC(C)c1oc(=O)cc2c1[C@@H](O)[C@H]1OC(=O)[C@@]3(C)C[C@@H](O)[C@@H](O)[C@@]2(C)C13 (some centres not stated)	-26.3%	0.82 µM [falling, full curve, poor fit]	1.3 µM [falling, full curve]
O=C(Nc1cccc(C(F)(F)F)c1)OC1CN2CCC1CC2 (configuration not stated)	34.5%	–	29.1 µM [rising, single point]
CC(=O)OC1N=C(c2ccccc2Cl)c2cc(Br)ccc2NC1=O (configuration not stated)	27.7%	3.66 µM [rising, full curve, poor fit]	29.1 µM [rising, single point]
OC(c1ccncc1)(c1ccc(F)cc1)c1ccc(F)cc1	22.2%	–	1.16 µM [falling, single point]
Cc1cc(NC(=O)COC(=O)c2c(C)nn(Cc3ccccc3)c2Cl)no1	–	0.259 µM [rising, full curve, poor fit]	1.64 µM [rising, partial curve]
COC(=O)C1=C(c2ccc(C(C)=O)cc2)C[C@@H]2CC[C@H]1N2C(=O)N1CCOCC1	6.02%	–	0.58 µM [rising, full curve, poor fit]
Cc1cc(Cc2c(O)[nH]c(=S)[nH]c2=O)ccc1OC(C)C	-17%	–	–
CN1CCC(C)(O)C2CCCCC21 (configuration not stated)	-21.9%	–	29.1 µM [falling, single point]
Nc1c(C(=O)NCCN2CCOCC2)c2nc3ccccc3nc2n1Cc1ccccc1	-33.2%	16.4 µM [falling, single point]	18.4 µM [falling, single point]
Cc1ccc(CN2CC3CC(C2)c2cccc(=O)n2C3)cc1 (configuration not stated)	-16.3%	–	2.91 µM [falling, full curve]

Arranged by heavy-atom count (low to high): three of the compounds above.
SMILES	cell number change	AC50 [1]	AC50 [2]
COc1ccc2c(c1)[nH]c1c(C)nccc12	28.6%	0.0731 µM [rising, full curve]	0.731 µM [rising, full curve]
OC(c1ccncc1)(c1ccc(F)cc1)c1ccc(F)cc1	22.2%	–	1.16 µM [falling, single point]
O=C(Nc1ccc(Cl)cc1C(=O)c1ccccc1)c1ccccc1	-19.9%	–	18.4 µM [falling, single point]

The listing continues.

SMILES	cell number change	AC50 [1]	AC50 [2]
Cc1nn(Cc2ccccc2)c(C)c1C(=O)NCc1ccccc1	91.5%	–	–
C#CCOCCOCCOCCNc1nc(N2CCN(C(=O)CCCCCCCCCCNC(=O)[C@H]([C@@H](C)CC)n3cc(CCCCN=C(N)N)nn3)CC2)nc(N2CCN(C(=O)CCCCCCCCCCNC(=O)[C@H](CO)n3cc(CCCCCN)nn3)CC2)n1	-87.5%	11.6 µM [falling, partial curve]	25.9 µM [falling, single point]
COc1ccc2[nH]c(C)c(CCNCc3cn(C)c4ccccc34)c2c1	-8.13%	2.59 µM [rising, single point]	2.06 µM [falling, partial curve]
COc1cc2c(cc1OC)-c1c(OC)c(OC)cc3c1[C@H](C2)[N+](C)(C)CC3	-22.6%	–	3.66 µM [falling, full curve]
CC(C)C(C)(NC(=O)c1cccn(Cc2ccc3c(c2)OC(F)(F)O3)c1=O)C(N)=O (configuration not stated)	35.8%	0.164 µM [rising, full curve, poor fit]	–
CNc1cc(N2CCNCC2)ccc1[N+](=O)[O-]	-16%	0.0326 µM [falling, full curve, poor fit]	5.8 µM [falling, partial curve]
Cc1nc2c(=O)n(C)c(=O)nc-2n(C)n1	-48%	1.84 µM [falling, full curve]	1.46 µM [falling, full curve]
CCn1cc(CN2CCCC(C(=O)c3sccc3C)C2)cn1 (configuration not stated)	-4%	–	4.11 µM [falling, full curve, poor fit]
CCN(CC)C(=O)c1ccc(NC(=O)CCCSc2ccccc2)cc1	–	–	6.51 µM [falling, single point]
Brc1ccc(CN2CCNCC2)s1	-74.6%	23.1 µM [falling, single point]	–
CCCCn1c(=O)c(C(=O)NCc2ccncc2)c(O)c2ccccc21	19.4%	–	–
CCC(=NCCCN(CC)CC)c1c(O)n(-c2ccccc2)c(=O)[nH]c1=O	-15.1%	–	3.66 µM [falling, full curve, poor fit]
CCOc1ccc(-n2c(O)c(C=NCCN3CCNCC3)c(=O)[nH]c2=O)cc1	15.6%	–	–
CN(CCc1nnc(N)s1)[N+](=O)[O-]	-46%	5.8 µM [falling, partial curve, poor fit]	9.2 µM [falling, partial curve, poor fit]
O=C(Cc1ccccc1)N1CCN(Cc2ccccc2Cl)CC1	20.1%	–	0.00517 µM [falling, full curve, poor fit]
Cc1nc2nc(C)c(CCC(=O)N3CCC4(CC3)OCCO4)c(C)n2n1	8.34%	–	18.4 µM [falling, single point]
CC1CN=C(NCc2ccccc2Cl)S1 (configuration not stated)	-19.6%	–	1.16 µM [rising, full curve, poor fit]
COP1(=O)C[C@@H](O)[C@@H](O)[C@@H](COCc2ccccc2)O1 (some centres not stated)	–	29.1 µM [falling, single point]	–
